Holding throughout (assay): co-IP; endogenous proteins in BMSC lysate; lysate incubated with primary antibody overnight at 4 °C, protein A/G magnetic beads 2 h at 4 °C, washed three times with PBS 0.1% Tween-20, western blot
For orientation: In western blotting, separated proteins are transferred to a membrane and probed.

By UniProt entry, the sequences of proteins in these tests, tags left out. Where a name states a change or a piece, a line headed by the entry shows the natural chain unless it says otherwise. Residues count along the entry.
UniProt Q01815: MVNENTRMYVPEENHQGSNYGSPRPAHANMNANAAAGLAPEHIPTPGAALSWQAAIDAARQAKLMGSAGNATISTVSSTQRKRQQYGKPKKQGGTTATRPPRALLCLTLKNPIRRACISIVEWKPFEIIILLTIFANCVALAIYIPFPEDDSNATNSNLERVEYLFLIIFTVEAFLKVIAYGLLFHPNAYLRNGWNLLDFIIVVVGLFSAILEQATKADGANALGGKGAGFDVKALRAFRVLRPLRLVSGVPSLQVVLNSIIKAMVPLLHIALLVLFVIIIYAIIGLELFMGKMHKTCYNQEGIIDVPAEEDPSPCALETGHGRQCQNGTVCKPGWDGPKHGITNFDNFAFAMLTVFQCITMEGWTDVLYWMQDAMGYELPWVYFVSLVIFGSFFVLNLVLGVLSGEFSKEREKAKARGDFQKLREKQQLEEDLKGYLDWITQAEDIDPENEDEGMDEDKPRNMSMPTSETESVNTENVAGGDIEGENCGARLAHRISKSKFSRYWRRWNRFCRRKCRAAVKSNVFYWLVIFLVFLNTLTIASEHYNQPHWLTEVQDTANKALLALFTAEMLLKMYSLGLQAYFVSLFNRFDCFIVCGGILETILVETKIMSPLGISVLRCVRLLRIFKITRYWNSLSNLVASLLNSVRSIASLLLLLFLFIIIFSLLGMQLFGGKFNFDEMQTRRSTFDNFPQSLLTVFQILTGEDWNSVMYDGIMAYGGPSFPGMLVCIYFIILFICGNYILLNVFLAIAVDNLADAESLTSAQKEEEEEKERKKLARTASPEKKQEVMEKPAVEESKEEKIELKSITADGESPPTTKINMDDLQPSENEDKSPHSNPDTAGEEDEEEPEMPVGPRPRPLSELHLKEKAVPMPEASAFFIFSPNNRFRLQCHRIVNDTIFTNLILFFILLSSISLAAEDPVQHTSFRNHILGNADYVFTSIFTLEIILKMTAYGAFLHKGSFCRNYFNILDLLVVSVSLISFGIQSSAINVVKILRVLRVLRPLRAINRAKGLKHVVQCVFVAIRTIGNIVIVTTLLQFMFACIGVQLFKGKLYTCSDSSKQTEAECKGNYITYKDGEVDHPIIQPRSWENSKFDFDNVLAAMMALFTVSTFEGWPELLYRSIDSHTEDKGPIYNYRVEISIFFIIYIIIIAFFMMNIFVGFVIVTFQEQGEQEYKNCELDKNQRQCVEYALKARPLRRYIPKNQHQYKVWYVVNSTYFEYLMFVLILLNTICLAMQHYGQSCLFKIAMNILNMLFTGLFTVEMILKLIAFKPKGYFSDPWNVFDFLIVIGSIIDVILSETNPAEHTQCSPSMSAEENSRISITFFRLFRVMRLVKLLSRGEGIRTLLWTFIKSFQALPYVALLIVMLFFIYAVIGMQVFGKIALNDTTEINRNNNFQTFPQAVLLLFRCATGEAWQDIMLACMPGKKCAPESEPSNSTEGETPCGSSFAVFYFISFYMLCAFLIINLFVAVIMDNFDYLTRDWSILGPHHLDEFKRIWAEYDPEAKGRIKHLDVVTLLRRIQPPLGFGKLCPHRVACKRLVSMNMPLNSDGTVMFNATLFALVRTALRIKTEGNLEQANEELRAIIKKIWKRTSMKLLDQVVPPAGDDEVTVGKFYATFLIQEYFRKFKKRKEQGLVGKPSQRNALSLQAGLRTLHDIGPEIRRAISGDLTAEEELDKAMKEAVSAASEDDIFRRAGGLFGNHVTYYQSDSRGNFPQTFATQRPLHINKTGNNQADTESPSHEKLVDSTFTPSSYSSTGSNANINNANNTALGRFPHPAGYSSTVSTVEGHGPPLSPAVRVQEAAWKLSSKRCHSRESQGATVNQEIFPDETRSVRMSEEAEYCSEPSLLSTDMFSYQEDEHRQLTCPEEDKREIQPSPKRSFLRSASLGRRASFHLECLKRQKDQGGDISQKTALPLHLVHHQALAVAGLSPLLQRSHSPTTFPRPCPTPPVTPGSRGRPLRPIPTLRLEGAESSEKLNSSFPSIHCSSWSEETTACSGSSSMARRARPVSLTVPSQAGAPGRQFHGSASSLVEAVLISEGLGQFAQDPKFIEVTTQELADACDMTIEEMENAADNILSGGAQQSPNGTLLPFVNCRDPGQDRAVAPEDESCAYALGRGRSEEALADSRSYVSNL
UniProt Q99246: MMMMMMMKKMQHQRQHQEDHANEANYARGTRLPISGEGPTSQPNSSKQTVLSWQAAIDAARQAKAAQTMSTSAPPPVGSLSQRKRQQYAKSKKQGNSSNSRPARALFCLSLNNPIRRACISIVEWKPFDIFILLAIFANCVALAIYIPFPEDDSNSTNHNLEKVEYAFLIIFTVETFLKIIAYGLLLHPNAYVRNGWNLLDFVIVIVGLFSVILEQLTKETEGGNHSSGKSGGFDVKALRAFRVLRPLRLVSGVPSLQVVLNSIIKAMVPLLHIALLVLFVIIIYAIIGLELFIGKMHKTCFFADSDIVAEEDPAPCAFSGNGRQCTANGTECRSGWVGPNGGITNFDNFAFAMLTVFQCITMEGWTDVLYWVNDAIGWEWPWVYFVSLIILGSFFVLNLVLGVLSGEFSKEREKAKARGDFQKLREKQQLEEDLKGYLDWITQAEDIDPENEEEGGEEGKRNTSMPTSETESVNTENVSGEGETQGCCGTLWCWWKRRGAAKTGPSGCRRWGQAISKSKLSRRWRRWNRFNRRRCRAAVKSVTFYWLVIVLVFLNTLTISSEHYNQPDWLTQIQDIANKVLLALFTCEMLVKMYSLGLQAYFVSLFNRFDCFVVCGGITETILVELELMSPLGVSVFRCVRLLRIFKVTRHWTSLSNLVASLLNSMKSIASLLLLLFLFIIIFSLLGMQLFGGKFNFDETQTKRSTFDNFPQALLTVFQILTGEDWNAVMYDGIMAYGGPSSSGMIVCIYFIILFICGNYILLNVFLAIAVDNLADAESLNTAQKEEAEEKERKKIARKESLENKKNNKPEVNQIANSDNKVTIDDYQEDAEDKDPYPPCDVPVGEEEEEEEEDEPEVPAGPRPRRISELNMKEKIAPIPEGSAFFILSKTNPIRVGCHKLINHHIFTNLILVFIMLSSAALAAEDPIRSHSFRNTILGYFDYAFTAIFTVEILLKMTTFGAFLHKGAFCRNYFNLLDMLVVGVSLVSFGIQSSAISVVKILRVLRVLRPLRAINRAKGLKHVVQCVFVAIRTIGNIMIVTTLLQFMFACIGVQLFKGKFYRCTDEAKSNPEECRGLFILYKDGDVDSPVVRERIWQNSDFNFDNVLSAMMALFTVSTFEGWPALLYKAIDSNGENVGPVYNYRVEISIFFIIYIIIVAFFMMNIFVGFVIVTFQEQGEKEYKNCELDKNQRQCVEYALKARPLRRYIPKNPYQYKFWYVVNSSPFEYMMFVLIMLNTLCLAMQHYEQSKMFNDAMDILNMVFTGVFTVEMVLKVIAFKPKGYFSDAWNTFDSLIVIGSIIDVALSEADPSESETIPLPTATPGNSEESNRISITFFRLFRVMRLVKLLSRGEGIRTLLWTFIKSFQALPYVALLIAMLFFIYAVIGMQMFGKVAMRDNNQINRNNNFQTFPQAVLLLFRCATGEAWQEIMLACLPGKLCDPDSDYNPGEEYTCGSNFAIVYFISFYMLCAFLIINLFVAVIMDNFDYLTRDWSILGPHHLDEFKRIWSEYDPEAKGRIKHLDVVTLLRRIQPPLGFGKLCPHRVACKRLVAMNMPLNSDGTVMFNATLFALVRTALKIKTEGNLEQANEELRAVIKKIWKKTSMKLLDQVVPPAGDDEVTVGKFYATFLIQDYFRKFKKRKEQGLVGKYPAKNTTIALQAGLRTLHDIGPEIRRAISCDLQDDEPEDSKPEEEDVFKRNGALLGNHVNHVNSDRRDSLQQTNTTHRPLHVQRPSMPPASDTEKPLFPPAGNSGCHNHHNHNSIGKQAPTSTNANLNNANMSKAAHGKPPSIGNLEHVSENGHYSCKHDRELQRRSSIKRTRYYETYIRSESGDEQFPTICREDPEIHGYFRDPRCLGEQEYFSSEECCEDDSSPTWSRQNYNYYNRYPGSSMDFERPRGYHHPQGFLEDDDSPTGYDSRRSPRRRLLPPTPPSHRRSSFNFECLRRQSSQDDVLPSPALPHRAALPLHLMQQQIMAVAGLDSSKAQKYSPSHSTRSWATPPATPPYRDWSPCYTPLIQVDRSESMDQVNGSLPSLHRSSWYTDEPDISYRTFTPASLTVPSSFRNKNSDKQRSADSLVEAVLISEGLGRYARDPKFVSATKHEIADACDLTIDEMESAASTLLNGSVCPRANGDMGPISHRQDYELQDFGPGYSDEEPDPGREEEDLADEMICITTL
UniProt O08532, residues 25-1103: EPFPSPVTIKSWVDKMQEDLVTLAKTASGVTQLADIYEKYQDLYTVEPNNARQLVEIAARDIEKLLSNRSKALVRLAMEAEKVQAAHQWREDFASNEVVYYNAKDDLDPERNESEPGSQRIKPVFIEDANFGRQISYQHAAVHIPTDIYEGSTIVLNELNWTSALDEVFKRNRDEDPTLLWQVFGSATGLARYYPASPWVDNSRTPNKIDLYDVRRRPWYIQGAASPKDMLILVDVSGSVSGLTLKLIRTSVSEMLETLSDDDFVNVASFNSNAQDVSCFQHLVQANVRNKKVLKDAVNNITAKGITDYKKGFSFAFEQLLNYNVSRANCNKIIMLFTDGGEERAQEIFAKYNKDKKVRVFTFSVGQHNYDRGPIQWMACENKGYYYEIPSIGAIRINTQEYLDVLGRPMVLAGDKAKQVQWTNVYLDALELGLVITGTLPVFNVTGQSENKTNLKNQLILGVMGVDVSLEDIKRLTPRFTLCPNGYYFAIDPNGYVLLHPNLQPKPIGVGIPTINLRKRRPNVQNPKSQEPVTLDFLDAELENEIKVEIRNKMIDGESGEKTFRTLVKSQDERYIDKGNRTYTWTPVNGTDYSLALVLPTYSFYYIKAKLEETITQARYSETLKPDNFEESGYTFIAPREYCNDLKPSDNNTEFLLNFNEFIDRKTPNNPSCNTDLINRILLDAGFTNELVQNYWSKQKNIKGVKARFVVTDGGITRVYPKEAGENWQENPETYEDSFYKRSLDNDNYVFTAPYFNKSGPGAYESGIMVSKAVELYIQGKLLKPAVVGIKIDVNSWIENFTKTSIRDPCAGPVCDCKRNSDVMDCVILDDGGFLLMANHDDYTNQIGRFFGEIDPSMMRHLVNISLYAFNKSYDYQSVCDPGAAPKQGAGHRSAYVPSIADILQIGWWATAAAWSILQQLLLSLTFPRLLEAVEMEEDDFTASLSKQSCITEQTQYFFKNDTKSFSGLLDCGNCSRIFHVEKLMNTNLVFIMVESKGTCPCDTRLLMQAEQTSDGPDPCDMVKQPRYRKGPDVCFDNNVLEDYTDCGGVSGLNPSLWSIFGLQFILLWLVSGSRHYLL

For assay [1], the target named is T1, liver/bone/kidney alkaline phosphatase (ALPL) (mouse (endogenous in BMSCs)) (UniProt P09242).
T1 sequence: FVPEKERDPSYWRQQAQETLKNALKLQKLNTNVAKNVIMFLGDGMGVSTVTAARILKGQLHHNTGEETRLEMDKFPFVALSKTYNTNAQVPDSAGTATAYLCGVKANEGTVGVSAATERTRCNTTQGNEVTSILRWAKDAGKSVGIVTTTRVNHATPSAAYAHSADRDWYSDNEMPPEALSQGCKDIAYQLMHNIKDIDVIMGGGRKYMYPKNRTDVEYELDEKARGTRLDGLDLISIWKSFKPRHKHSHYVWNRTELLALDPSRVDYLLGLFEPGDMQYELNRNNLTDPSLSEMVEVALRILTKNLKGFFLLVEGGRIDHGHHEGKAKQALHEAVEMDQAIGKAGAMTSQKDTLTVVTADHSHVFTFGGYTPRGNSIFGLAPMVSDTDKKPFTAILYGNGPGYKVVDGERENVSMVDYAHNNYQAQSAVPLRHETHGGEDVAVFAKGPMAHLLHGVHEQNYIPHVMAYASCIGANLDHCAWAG

Assay [2] has as its target L-type Ca2+ channel CaV1.2 (mouse (endogenous in BMSCs)) (UniProt Q01815).
The target of assay [3] is L-type Ca2+ channel CaV1.3 (mouse (endogenous in BMSCs)) (UniProt Q99246).
The target in assay [4] is α2δ subunit of the L-type Ca2+ channel (mouse (endogenous in BMSCs)) (UniProt O08532).

Results are given in words; binding and its absence hold for the method and conditions named. In cells and extracts the contact can be indirect. Some entries that bind do so weakly or less than the wild type.

As to “L-type Ca2+ channel CaV1.2 (from UniProt Q01815 1-2139)”, the binding result in assay [1] is reported as “binds”.
Regarding “L-type Ca2+ channel CaV1.3 (from UniProt Q99246 1-2179)”, the binding entry in assay [1] is given as “binds”.

B1: liver/bone/kidney alkaline phosphatase (ALPL) (enzyme, UniProt P09242 18-501)
chain: T1 sequence
Consider B1, for which the binding result in assay [2], in assay [3] and in assay [4] was “binds” throughout.
